Reference: patent publication US20230416760A1 (CURATORS OF THE UNIVERSITY OF MISSOURI, published 2023)
No constants are given. Whether binding was seen depends on the method and setting. Binding seen in cells or lysates may run through a third protein. Some results given as binding are weak or reduced against the parent protein; the word gives no strength.

Target: T1, α-carboxyltransferase (α-CT) subunit of hetACCase, AT2G38040, Arabidopsis thaliana (Arabidopsis thaliana) (UniProt Q9LD43)
T1 sequence: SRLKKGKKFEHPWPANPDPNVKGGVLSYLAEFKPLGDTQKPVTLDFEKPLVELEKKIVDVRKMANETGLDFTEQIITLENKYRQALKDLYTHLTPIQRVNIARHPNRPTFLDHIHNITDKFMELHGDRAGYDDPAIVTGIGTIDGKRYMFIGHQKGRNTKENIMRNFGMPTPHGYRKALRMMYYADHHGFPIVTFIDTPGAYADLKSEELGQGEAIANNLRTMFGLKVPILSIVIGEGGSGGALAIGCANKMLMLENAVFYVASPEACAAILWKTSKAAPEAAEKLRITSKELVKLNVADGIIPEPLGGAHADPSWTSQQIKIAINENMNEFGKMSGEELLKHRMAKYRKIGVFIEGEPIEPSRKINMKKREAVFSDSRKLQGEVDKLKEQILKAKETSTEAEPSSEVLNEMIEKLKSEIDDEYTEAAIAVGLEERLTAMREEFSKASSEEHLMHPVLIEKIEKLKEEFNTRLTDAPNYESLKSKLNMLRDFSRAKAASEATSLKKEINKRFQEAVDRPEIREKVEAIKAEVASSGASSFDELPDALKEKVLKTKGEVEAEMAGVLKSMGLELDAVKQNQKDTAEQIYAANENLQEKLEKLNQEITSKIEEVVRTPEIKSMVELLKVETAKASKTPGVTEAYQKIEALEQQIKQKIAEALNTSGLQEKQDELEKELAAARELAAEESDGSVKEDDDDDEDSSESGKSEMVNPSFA
Assay: co-IP from chloroplast lysate with anti-α-CT antibody, LC-MS/MS

B1: β-carboxyltransferase (β-CT) subunit of hetACCase, ATCG00500, Arabidopsis thaliana (enzyme, UniProt P56765 1-488, looked up)
chain: MEKSWFNFMFSKGELEYRGELSKAMDSFAPGEKTTISQDRFIYDMDKNFYGWDERSSYSSSYSNNVDLLVSSKDIRNFISDDTFFVRDSNKNSYSIFFDKKKKIFEIDNDFSDLEKFFYSYCSSSYLNNRSKGDNDLHYDPYIKDTKYNCTNHINSCIDSYFRSYICIDNNFLIDSNNFNESYIYNFICSESGKIRESKNYKIRTNRNRSNLISSKDFDITQNYNQLWIQCDNCYGLMYKKVKMNVCEQCGHYLKMSSSERIELLIDPGTWNPMDEDMVSADPIKFHSKEEPYKNRIDSAQKTTGLTDAVQTGTGQLNGIPVALGVMDFRFMGGSMGSVVGEKITRLIEYATNQCLPLILVCSSGGARMQEGSLSLMQMAKISSVLCDYQSSKKLFYISILTSPTTGGVTASFGMLGDIIIAEPYAYIAFAGKRVIEQTLKKAVPEGSQAAESLLRKGLLDAIVPRNLLKGVLSELFQLHAFFPLNTN
B1 was tested, and the binding was “binds”.
